Laboratory results taken from PMC6817842.
These are yes or no findings as the source states them, for the method shown. In cells and extracts the contact can be indirect. Some results given as binding are weak or reduced against the parent protein; the word gives no strength.

Molecular target: NKX2-5^fb (NKX2-5 with C-terminal FLAG and biotin acceptor peptide, knock-in allele) (mouse), P42582
Test: pull-down; biotinylated knock-in TF captured on M280 streptavidin Dynabeads from 150 µg embryonic heart lysate in RIPA buffer, 4 h at 4 °C; beads washed with cold PBS; partners detected by capillary electrophoresis immunoassay (ProteinSimple Wes); called CoIP in the methods
Settings: remark: other sources report otherwise

B1: TBX5 (endogenous), P70326 1-518 (protein)
chain: MADTDEGFGLARTPLEPDSKDRSCDSKPESALGAPSKSPSSPQAAFTQQGMEGIKVFLHERELWLKFHEVGTEMIITKAGRRMFPSYKVKVTGLNPKTKYILLMDIVPADDHRYKFADNKWSVTGKAEPAMPGRLYVHPDSPATGAHWMRQLVSFQKLKLTNNHLDPFGHIILNSMHKYQPRLHIVKADENNGFGSKNTAFCTHVFPETAFIAVTSYQNHKITQLKIENNPFAKGFRGSDDLELHRMSRMQSKEYPVVPRSTVRHKVTSNHSPFSSETRALSTSSNLGSQYQCENGVSGPSQDLLPPPNPYPLAQEHSQIYHCTKRKDEECSSTEHPYKKPYMETSPSEEDTFYRSGYPQQQGLSTSYRTESAQRQACMYASSAPPSEPVPSLEDISCNTWPSMPSYSSCTVTTVQPMDRLPYQHFSAHFTSGPLVPRLAGMANHGSPQLGEGMFQHQTSVAHQPVVRQCGPQTGLQSPGGLQPPEFLYTHGVPRTLSPHQYHSVHGVGMVPEWSENS
modifications: here or on the partner: biotin on the BIO peptide (added by BirA)
With B1 as the binder, how does the binding read?
The binding was “binds”.
